# Measured values: patent publication EP0085866A1, “Derivatives of benzo-1,2-thiazine-1,1-dioxide, a process for their preparation and pharmaceutical compositions containing the same” (priority 1982, dated 1983)
# Tested on: gastric mucosa
# Assay: Gastrolesive activity (macroscopic control of the gastric mucosa)
# Type: in vivo, Crl: CD(SD) male rats
# Details: therapeutic index relative to piroxicam of the same session considered as 1
# Excerpt: On the ground of such lines the calculation of UD3 values, that is a dose whereby a gastric lesion of the total extension of 3 mm is expected, has been performed.
row,Compound,Relative therapeutic index
1,"CN1C(C(=O)Nc2ccccn2)=C(OC(=O)C(C)(C)C)c2ccccc2S1(=O)=O [CHF 1021, 4-Pivaloyloxy-2-methyl-2H-1,2-benzothiazine-3-[N-(2-pyridyl)-carboxamide]-1,1-dioxide]",10.25
2,"CN1C(C(=O)Nc2nccs2)=C(OC(=O)C(C)(C)C)c2ccccc2S1(=O)=O [CHF 1047, 4-pivaloyloxy-2-methyl-2H-1,2-benzothiazine-3-[N-(2-thiazolyl)-carboxamide]-1,1-dioxide]",0.07
3,"CN1C(C(=O)Nc2ccccn2)=C(O)c2ccccc2S1(=O)=O [piroxicam, reference compound]",1
4,CCCC(=O)OC1=C(C(=O)Nc2ccccn2)N(C)S(=O)(=O)c2ccccc21 [CHF 1115],1.50
5,CCCCC(=O)OC1=C(C(=O)Nc2ccccn2)N(C)S(=O)(=O)c2ccccc21 [CHF 1109],1.43
